These are yes or no findings as the source states them, for the method shown. Some entries that bind do so weakly or less than the wild type.
Biological target: Venus-CFTR (full-length CFTR) (UniProt P13569)
Assay: flow cytometric FRET in HEK293 cells, Cerulean-nb.E3h donor and Venus-CFTR acceptor

Protein sequences, listed by entry. Tags and fused reporters are not part of them.
UniProt P13569: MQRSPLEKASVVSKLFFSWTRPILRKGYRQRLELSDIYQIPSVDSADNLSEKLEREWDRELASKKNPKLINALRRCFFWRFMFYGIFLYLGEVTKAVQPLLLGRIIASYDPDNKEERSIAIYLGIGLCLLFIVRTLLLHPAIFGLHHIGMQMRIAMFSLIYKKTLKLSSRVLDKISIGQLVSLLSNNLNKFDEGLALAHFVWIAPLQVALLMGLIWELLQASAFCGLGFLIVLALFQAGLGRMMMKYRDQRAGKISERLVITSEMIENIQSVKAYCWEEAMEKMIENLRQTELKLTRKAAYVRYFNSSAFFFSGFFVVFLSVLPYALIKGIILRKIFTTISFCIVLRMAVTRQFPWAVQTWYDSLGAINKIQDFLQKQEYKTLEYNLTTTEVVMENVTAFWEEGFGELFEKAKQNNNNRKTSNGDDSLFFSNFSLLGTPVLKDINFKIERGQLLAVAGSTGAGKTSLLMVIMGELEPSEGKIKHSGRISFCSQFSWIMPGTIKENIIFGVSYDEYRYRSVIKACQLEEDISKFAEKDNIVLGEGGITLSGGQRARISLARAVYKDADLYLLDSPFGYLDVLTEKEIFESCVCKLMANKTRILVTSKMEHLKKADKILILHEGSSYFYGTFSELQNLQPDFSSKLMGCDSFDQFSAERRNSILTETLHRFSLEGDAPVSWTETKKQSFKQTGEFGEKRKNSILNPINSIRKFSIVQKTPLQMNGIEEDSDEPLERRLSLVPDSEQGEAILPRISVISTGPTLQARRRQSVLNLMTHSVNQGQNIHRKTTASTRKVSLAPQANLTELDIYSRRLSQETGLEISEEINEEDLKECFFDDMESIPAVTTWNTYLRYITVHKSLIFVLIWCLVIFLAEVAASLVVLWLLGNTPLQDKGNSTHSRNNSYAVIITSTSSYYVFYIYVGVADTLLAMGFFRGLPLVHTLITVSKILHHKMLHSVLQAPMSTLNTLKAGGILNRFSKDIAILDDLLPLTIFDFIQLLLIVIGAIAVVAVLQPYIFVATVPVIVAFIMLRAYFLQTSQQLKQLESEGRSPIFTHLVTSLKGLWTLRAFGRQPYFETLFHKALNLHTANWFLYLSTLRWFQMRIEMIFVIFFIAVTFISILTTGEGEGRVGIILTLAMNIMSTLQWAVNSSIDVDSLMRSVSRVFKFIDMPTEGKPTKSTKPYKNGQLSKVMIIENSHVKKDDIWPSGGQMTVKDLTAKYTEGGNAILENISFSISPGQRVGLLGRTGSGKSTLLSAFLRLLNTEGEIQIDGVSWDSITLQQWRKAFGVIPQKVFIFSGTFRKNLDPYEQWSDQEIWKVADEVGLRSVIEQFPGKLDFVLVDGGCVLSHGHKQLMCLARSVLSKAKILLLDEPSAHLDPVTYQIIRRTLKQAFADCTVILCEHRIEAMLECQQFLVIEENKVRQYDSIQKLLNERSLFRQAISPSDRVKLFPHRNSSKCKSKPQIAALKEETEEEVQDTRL

- binding: binds
B1: Cerulean-nb.E3h (VHH, not shown: large carriers)
VHH: QVQLQESGGGLVQAGGSLRLSCAASGTISGSGSMGWYRQAPGKEREFVAAINVGSNTYYADSVKGRFTISRDNAKNTVYLQMNSLKPEDTAVYYCAVRFGYYYRHTYWGQGTQVTVSS

Reference: patent publication US20230235084A1, “COMPOSITIONS AND METHODS FOR TARGETED PROTEIN STABILIZATION BY REDIRECTING ENDOGENOUS DEUBIQUITINASES” (THE TRUSTEES OF COLUMBIA UNIVERSITY IN THE CITY OF NEW YORK, priority 2020, published 2023)
